Reference: patent US20250221957A1, “PS[…] AND THEIR USE FOR TREATING […] AND NE[…] DISORDERS” (Transcend Therapeutics, Inc., priority 2021, published 2025)

Tested on: rats
Test: Open field test (OFT)
Assay type: in vivo, rat
Method: Data are mean +/− SEM. N=6 per group. * p<0.05; **p<0.01 vs. vehicle control group.
Method: Consecutive beam breaks and/or video-tracking of time spent in the center versus periphery of the open field are measured. Also measured are parameters such as distance traveled and ambulatory activity (horizontal and vertical) for the duration of the test session.
The open field test (OFT) capitalizes on a rodent's innate fear of open spaces to assess anxiety-like behavior. More time spent in the center of an open field reflects an anxiolytic (anti-anxiety) effect.

CNC(C)C(=O)c1ccc2c(c1)OCO2 (centres unmarked) [methylone, 3,4-methylenedioxy-N-methylcathinone]
locomotor activity compared to vehicle (methylone 5 mg/kg): no effect | locomotor activity compared to vehicle (methylone 15 or 30 mg/kg): significant increase
